Assay [1] addresses DORN1-HA (HA-tagged DORN1, LecRK-I.9) (Arabidopsis) (UniProt Q9LSR8). As to the kind of experiment: co-IP; HA- and Myc-tagged proteins co-expressed in wild-type Arabidopsis protoplasts, treated with 200 μM ATP for 20 min or H2O; extract in 50 mM Tris pH 7.5, 150 mM NaCl, 0.5% Triton-X 100; anti-Myc and protein A resin, blot with anti-HA-HRP.
Assay [2] concerns the target RBOHD-Myc (Myc-tagged RBOHD) (Arabidopsis) (UniProt Q9FIJ0). Described as above.
Assay [3] concerns the target RBOHD-Myc from the CaMV 35S promoter (35s::RBOHD-Myc/Col-0) (Arabidopsis) (UniProt Q9FIJ0). As to the kind of experiment: co-IP; total protein extract of stable transgenic Arabidopsis plants (F1) expressing DORN1-HA and RBOHD-Myc, treated with or without 250 μM ATP for 30 min.
The target in assay [4] is RBOHD-YFPc (Arabidopsis) (UniProt Q9FIJ0). As to the kind of experiment: split reporter; BiFC: YFPn and YFPc fusions co-transformed into Arabidopsis protoplasts, overnight at 23 °C in the dark; YFP fluorescence by microscopy, FM4-64 as plasma membrane marker.
Assay [5] deals with RBOHD-Myc (Myc-tagged RBOHD) (Arabidopsis), Q9FIJ0. As to the kind of experiment: co-IP; HA- and Myc-tagged proteins co-expressed in wild-type Arabidopsis protoplasts, treated with 200 μM ATP for 20 min or H2O; extract in 50 mM Tris pH 7.5, 150 mM NaCl, 0.5% Triton-X 100; anti-Myc and protein A resin, blot with anti-HA-HRP. Particulars: remark: other sources report otherwise.

Sequences of proteins named here, by UniProt entry; tags and fusion partners are left off.
UniProt Q9FIJ0: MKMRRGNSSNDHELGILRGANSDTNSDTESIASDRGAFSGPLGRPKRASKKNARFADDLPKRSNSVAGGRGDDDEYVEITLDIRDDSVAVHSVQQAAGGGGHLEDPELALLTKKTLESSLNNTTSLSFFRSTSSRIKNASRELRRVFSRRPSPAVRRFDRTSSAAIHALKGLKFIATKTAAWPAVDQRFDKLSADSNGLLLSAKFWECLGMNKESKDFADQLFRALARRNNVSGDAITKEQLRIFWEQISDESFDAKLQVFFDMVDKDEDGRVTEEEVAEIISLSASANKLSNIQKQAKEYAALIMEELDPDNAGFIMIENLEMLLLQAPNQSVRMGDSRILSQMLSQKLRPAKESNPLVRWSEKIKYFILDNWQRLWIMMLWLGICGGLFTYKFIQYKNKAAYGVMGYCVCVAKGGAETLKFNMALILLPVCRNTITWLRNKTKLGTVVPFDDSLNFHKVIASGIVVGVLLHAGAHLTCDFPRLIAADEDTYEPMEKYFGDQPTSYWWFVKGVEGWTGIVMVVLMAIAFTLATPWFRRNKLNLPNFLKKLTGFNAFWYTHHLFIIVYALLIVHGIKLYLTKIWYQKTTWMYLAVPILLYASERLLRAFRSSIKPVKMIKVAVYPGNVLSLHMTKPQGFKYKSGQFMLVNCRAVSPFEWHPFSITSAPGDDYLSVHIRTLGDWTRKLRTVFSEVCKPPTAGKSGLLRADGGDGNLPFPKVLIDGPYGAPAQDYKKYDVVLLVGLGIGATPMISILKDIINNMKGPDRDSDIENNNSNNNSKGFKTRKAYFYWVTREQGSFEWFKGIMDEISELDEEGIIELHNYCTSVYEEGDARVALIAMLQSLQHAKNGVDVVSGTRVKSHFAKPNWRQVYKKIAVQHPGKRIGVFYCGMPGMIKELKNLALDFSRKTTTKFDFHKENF

This note sets out measurements from paper PMC5741621.

These are yes or no findings as the source states them, for the method shown. In cells and extracts the contact can be indirect. Some results given as binding are weak or reduced against the parent protein; the word gives no strength. For some assays here: Sequences can lack the tags named with a protein.

B1: DORN1-HA (HA-tagged DORN1, LecRK-I.9) (receptor, UniProt Q9LSR8 22-766)
chain: QQETSFVYESFLDRQNLYLDKSAIVLPSGLLQLTNASEHQMGHAFHKKPIEFSSSGPLSFSTHFVCALVPKPGFEGGHGIVFVLSPSMDFTHAESTRYLGIFNASTNGSSSYHVLAVELDTIWNPDFKDIDHNHVGIDVNSPISVAIASASYYSDMKGSNESINLLSGNPIQVWVDYEGTLLNVSVAPLEVQKPTRPLLSHPINLTELFPNRSSLFAGFSAATGTAISDQYILWWSFSIDRGSLQRLDISKLPEVPHPRAPHKKVSTLIILLPVCLAILVLAVLAGLYFRRRRKYSEVSETWEKEFDAHRFSYRSLFKATKGFSKDEFLGKGGFGEVYRGNLPQGREIAVKRVSHNGDEGVKQFVAEVVSMRCLKHRNLVPLFGYCRRKRELLLVSEYMPNGSLDEHLFDDQKPVLSWSQRLVVVKGIASALWYLHTGADQVVLHRDVKASNIMLDAEFHGRLGDFGMARFHEHGGNAATTAAVGTVGYMAPELITMGASTGTDVYAFGVFMLEVTCGRRPVEPQLQVEKRHMIKWVCECWKKDSLLDATDPRLGGKFVAEEVEMVMKLGLLCSNIVPESRPTMEQVVLYLNKNLPLPDFSPYTLGIGTFAPVLVDASSLVVSSASWSLSGPSMSSSSPNHSPYAWQSTDQPWGQTIDTKNSLHIVAEPEKPSPAVKMVTLPAEDPQSNHSSISSQRVQPVKREKRRLHQILVAFPWINKQYFKLGLPKHIVHVSLFFFLQLARL
Turning to B1, the binding entry in assay [1] and in assay [2] was “binds” each time.

B2: DORN1-HA from the DORN1 native promoter (NP::DORN1-HA/dorn1-3) (receptor, UniProt Q9LSR8 22-766)
chain: QQETSFVYESFLDRQNLYLDKSAIVLPSGLLQLTNASEHQMGHAFHKKPIEFSSSGPLSFSTHFVCALVPKPGFEGGHGIVFVLSPSMDFTHAESTRYLGIFNASTNGSSSYHVLAVELDTIWNPDFKDIDHNHVGIDVNSPISVAIASASYYSDMKGSNESINLLSGNPIQVWVDYEGTLLNVSVAPLEVQKPTRPLLSHPINLTELFPNRSSLFAGFSAATGTAISDQYILWWSFSIDRGSLQRLDISKLPEVPHPRAPHKKVSTLIILLPVCLAILVLAVLAGLYFRRRRKYSEVSETWEKEFDAHRFSYRSLFKATKGFSKDEFLGKGGFGEVYRGNLPQGREIAVKRVSHNGDEGVKQFVAEVVSMRCLKHRNLVPLFGYCRRKRELLLVSEYMPNGSLDEHLFDDQKPVLSWSQRLVVVKGIASALWYLHTGADQVVLHRDVKASNIMLDAEFHGRLGDFGMARFHEHGGNAATTAAVGTVGYMAPELITMGASTGTDVYAFGVFMLEVTCGRRPVEPQLQVEKRHMIKWVCECWKKDSLLDATDPRLGGKFVAEEVEMVMKLGLLCSNIVPESRPTMEQVVLYLNKNLPLPDFSPYTLGIGTFAPVLVDASSLVVSSASWSLSGPSMSSSSPNHSPYAWQSTDQPWGQTIDTKNSLHIVAEPEKPSPAVKMVTLPAEDPQSNHSSISSQRVQPVKREKRRLHQILVAFPWINKQYFKLGLPKHIVHVSLFFFLQLARL
Consider B2, for which the binding entry in assay [3] is “binds”.

B3: DORN1-YFPn (receptor, UniProt Q9LSR8 22-766)
chain: QQETSFVYESFLDRQNLYLDKSAIVLPSGLLQLTNASEHQMGHAFHKKPIEFSSSGPLSFSTHFVCALVPKPGFEGGHGIVFVLSPSMDFTHAESTRYLGIFNASTNGSSSYHVLAVELDTIWNPDFKDIDHNHVGIDVNSPISVAIASASYYSDMKGSNESINLLSGNPIQVWVDYEGTLLNVSVAPLEVQKPTRPLLSHPINLTELFPNRSSLFAGFSAATGTAISDQYILWWSFSIDRGSLQRLDISKLPEVPHPRAPHKKVSTLIILLPVCLAILVLAVLAGLYFRRRRKYSEVSETWEKEFDAHRFSYRSLFKATKGFSKDEFLGKGGFGEVYRGNLPQGREIAVKRVSHNGDEGVKQFVAEVVSMRCLKHRNLVPLFGYCRRKRELLLVSEYMPNGSLDEHLFDDQKPVLSWSQRLVVVKGIASALWYLHTGADQVVLHRDVKASNIMLDAEFHGRLGDFGMARFHEHGGNAATTAAVGTVGYMAPELITMGASTGTDVYAFGVFMLEVTCGRRPVEPQLQVEKRHMIKWVCECWKKDSLLDATDPRLGGKFVAEEVEMVMKLGLLCSNIVPESRPTMEQVVLYLNKNLPLPDFSPYTLGIGTFAPVLVDASSLVVSSASWSLSGPSMSSSSPNHSPYAWQSTDQPWGQTIDTKNSLHIVAEPEKPSPAVKMVTLPAEDPQSNHSSISSQRVQPVKREKRRLHQILVAFPWINKQYFKLGLPKHIVHVSLFFFLQLARL
As for B3, the binding result in assay [4] is “binds”.

B4: full-length chitin elicitor receptor kinase (CERK1), A8R7E6 24-617 (receptor)
chain: KCRTSCPLALASYYLENGTTLSVINQNLNSSIAPYDQINFDPILRYNSNIKDKDRIQMGSRVLVPFPCECQPGDFLGHNFSYSVRQEDTYERVAISNYANLTTMESLQARNPFPATNIPLSATLNVLVNCSCGDESVSKDFGLFVTYPLRPEDSLSSIARSSGVSADILQRYNPGVNFNSGNGIVYVPGRDPNGAFPPFKSSKQDGVGAGVIAGIVIGVIVALLLILFIVYYAYRKNKSKGDSFSSSIPLSTKADHASSTSLQSGGLGGAGVSPGIAAISVDKSVEFSLEELAKATDNFNLSFKIGQGGFGAVYYAELRGEKAAIKKMDMEASKQFLAELKVLTRVHHVNLVRLIGYCVEGSLFLVYEYVENGNLGQHLHGSGREPLPWTKRVQIALDSARGLEYIHEHTVPVYVHRDIKSANILIDQKFRAKVADFGLTKLTEVGGSATRGAMGTFGYMAPETVYGEVSAKVDVYAFGVVLYELISAKGAVVKMTEAVGEFRGLVGVFEESFKETDKEEALRKIIDPRLGDSYPFDSVYKMAELGKACTQENAQLRPSMRYIVVALSTLFSSTGNWDVGNFQNEDLVSLMSGR
As for B4, the binding entry in assay [5] is on record as “no binding”.
